Data published in EP4755912A1 (Shandong Boan Biotechnology Co., Ltd., dated 2026).
Results are given in words; binding and its absence hold for the method and conditions named. Some results given as binding are weak or reduced against the parent protein; the word gives no strength.

What was measured:
Human CD228 protein = biological target: T1, Human CD228 protein (human, UniProt P08582 20-708, limits assumed); assay: ELISA
T1 construct: A His tag is named only for the panning and Western blot material (CD228-His); also called CD228 antigenic protein; C28
T1 sequence: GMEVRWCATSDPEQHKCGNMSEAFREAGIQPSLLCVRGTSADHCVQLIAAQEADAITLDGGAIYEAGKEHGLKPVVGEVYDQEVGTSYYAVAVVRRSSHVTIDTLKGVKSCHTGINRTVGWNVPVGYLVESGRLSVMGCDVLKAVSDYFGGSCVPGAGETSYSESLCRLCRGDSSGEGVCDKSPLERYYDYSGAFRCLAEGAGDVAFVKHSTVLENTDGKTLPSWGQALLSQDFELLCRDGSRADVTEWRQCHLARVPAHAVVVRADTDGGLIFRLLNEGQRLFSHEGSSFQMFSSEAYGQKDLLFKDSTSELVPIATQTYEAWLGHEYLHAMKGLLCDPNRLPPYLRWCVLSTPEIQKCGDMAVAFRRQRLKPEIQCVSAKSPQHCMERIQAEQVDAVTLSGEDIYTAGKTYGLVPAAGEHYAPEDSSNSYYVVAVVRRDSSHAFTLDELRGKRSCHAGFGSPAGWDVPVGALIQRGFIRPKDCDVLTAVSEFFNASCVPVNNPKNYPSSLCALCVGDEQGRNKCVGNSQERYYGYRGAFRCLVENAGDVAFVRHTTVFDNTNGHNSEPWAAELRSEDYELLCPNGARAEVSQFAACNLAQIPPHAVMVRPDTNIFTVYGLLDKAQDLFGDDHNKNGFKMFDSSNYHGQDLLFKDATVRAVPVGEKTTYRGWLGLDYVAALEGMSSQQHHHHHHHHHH

[1] = biological target: T2, CD228 as expressed in human A375 cells and human tumor tissue sections (human) (UniProt P08582); assay: Western blot of A375 cell lysate
T2 sequence (looked up): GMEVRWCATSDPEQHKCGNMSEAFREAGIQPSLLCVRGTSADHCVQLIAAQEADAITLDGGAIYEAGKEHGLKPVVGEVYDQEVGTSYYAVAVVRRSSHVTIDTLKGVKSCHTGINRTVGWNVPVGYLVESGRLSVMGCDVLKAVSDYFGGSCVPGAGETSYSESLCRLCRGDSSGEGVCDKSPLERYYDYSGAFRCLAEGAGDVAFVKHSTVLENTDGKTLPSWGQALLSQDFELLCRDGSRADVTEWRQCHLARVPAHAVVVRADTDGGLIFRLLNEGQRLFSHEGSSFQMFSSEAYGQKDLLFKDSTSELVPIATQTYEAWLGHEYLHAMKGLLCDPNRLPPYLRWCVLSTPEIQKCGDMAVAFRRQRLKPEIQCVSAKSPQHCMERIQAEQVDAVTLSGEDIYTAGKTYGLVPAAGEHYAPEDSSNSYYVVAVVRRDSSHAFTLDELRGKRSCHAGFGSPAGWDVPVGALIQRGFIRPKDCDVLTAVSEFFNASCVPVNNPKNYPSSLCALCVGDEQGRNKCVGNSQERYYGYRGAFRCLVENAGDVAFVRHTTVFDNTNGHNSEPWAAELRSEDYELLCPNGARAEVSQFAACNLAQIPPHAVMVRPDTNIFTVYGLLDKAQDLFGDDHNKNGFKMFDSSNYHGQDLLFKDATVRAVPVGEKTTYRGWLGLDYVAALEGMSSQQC

B1: R526 (antibody, V domains shown)
VH: QEQLEESGGRLVTPGTPLTLTCTVSGFSLSTYAINWIRQAPGKGLEWIGIIGGNGATYYTNWAKGRFTISKTSTTVDLKITSPTIEDTATYFCARGTNFWGPGTLVTVSS
VL: DPVLTQTASPVSAAVGGTITINCQASQSVYNNNQLSWFQQNPGQPPKRLIHSTSTLAPGVSSRFKGSGSGTQFTLTISDVQCDDAATYYCLGSYDCVSADCNAFGGGTEVVVKG
notes: Rabbit-derived clone, full-length antibody with rabbit constant regions
Human CD228 protein
  binding: binds
[1]
  binding: binds
